Experimental data reported in paper PMC3861103.
The comparison behind a weaker result is the experiment's own reference, which may not be listed here. Protein sequences can lack the tags named with them.

Biological target: T1, 6xHis-MBP-NHR-25 DBD (unmodified) (Caenorhabditis elegans) (UniProt Q19345)
T1 sequence (looked up): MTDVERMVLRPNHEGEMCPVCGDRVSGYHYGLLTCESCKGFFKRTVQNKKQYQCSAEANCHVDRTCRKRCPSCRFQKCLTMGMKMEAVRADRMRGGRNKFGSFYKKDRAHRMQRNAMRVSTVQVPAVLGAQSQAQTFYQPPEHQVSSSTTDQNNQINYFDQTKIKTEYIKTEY
Assay: EMSA
Conditions: 1 uM DNA, 50 mM Tris pH 8.0, 150 mM NaCl, 10 mM MgCl2, 10 mM DTT, 10 mM ATP, 400 ug/ml BSA, 1 uM dsDNA, 500 nM protein (200-700 nM titration), room temperature 30 min, recombinant protein, residues 1-173, protein details: N-terminal 6xHis-MBP

Sequence	binding result (500 nM protein)	binding result
GATCCGCCAGGCACTGTCCCCCAATTTCACCTTTGGTGTTGATAAGATCCC / TCGAGGGATCTTATCAACACCAAAGGTGAAATTGGGGGACAGTGCCTGGCG [MIS MUT]	binds more weakly	–
CTAAAGGGAGAAAAGGTCATAGCGGCCAGTCAAAACCAAGGGCGACAG (double strand) [2xNR5RE MUT]	–	binds more weakly
